From paper PMC1950574

By UniProt entry, the sequences of proteins in these tests, tags left out.
UniProt Q01196, whole entry: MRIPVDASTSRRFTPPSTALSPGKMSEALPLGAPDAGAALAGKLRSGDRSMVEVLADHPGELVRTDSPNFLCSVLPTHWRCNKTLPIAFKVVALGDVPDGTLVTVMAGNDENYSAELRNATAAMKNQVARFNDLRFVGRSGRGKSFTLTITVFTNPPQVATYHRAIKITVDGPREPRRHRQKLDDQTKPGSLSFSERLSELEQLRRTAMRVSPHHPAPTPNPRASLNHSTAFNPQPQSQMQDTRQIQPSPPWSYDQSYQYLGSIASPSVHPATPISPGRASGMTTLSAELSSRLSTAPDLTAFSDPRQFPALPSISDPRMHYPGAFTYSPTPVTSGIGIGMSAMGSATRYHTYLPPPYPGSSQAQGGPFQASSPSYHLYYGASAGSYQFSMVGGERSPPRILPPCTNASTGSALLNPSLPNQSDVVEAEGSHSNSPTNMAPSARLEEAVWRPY

Assays:
[1] = target: RUNX1 (AML1) (UniProt Q01196); test: EMSA supershift; conditions: anti-RUNX1 supershift, anti-ATF-2 control gave none; Promega Gel Shift Assay System, HL60 nuclear extract, 6% polyacrylamide TBE gel; binding buffer composition, pH and temperature not stated; protein in an extract; label: 32P 5'-end (probe), unlabeled as competitor
[2] = target: RUNX1 (AML1) (UniProt Q01196); test: competition with a labelled probe; conditions: protein in an extract
[3] = target: RUNX1 (AML1) (UniProt Q01196); test: EMSA; conditions: direct labeled probe, compared with wt; Promega Gel Shift Assay System, HL60 nuclear extract, 6% polyacrylamide TBE gel; binding buffer composition, pH and temperature not stated; protein in an extract; label: 32P 5'-end (probe), unlabeled as competitor

“CTCTTGTGACCACCACTCAT (double strand) [CXCR1 intron RUNX1 site, common allele (wt)]”: binds [1]; binds ([2]; unlabeled wt 10-100x vs labeled wt probe, label: 32P 5'-end (probe), unlabeled as competitor).

“CTCTTGTGACCAGCACTCAT (double strand) [CXCR1 intron RUNX1 site, SNP1 (variant 1, 217C/G)]”: binds more weakly [3]; binds more weakly ([2]; unlabeled SNP1 10-100x vs labeled wt probe, label: 32P 5'-end (probe), unlabeled as competitor).

“TTGAACGTCACATCTTTAAC (double strand) [unspecific competitor]”: no binding ([2]; unlabeled 100x vs labeled wt probe).

For at least one entry, the source does not settle the construct or the ends of the probe. Results from cells or extracts need not show a direct contact. For some assays here: No signal at the amounts used counts as a negative. For some assays here: Weaker means in comparison with the reference protein, sequence or condition of that experiment.
